Article PMC4928909
A weaker result is weaker than the reference pair of the same experiment.

By UniProt entry, the sequences of proteins in these tests, tags left out. Where a name states a change or a piece, a line headed by the entry shows the natural chain unless it says otherwise.
UniProt P06778: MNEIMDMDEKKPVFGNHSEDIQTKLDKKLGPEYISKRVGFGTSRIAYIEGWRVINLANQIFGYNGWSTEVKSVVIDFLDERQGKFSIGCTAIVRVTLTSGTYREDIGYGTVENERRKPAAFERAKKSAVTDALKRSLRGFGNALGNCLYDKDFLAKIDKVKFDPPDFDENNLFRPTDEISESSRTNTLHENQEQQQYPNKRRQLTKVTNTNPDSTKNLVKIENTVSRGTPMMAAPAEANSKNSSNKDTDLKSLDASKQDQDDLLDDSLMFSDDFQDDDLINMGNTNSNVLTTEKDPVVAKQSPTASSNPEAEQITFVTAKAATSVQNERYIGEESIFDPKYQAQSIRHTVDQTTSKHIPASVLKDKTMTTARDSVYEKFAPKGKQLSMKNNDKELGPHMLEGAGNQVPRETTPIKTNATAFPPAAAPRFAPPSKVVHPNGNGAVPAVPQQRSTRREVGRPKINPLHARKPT

Molecular target: yRad52NM (Saccharomyces cerevisiae) (UniProt P06778)
Assay: EMSA
Conditions: 3 mM Mg acetate; 30 mM Tris-acetate pH 7.5, 3 mM Mg acetate, 20 mM NaCl, 37 C, 15 min, 100 nM labeled ssDNA; 6% PAGE in TBE; recombinant protein; residues …; protein details: C-terminal His6; label: 5'-32P; single-stranded DNA

“TGGTTGAGTACTCACCAGTCACAGAAAAGCATCTTACGGATGGCATGACAGTAAGAGAATTATGCAGTGC [TSO252]”: binds more weakly.
